Drawing on article PMC3960203, this text covers binding for one molecule.

The assay concerns the target T1, chimeric receptor RANK-TNFR2 (UniProt Q9Y6Q6).
T1 sequence: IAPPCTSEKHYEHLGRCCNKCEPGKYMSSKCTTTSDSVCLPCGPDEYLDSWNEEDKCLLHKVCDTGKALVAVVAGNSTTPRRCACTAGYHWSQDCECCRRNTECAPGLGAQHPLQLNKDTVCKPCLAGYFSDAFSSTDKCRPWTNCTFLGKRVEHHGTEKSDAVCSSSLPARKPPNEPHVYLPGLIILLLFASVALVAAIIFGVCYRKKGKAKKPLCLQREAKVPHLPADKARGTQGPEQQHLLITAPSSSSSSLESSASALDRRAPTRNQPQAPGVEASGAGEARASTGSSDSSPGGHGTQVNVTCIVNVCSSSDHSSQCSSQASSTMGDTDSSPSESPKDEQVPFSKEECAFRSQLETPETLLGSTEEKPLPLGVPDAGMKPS
Put plainly: co-IP; HEK293 cells cotransfected with receptor and TRAF plasmids, lysed after 24 h (20 mM Tris-HCl pH 8.0, 150 mM NaCl, 1 mM DTT, 2 mM EDTA, 1% Triton X-100); receptor precipitated with anti-FLAG and protein G-Sepharose at 4 °C; blots with anti-TRAF1, anti-TRAF2 or anti-TRAF3.

No constants are given. Whether binding was seen depends on the method and setting. In cells and extracts the contact can be indirect. Some entries that bind do so weakly or less than the wild type.

B1: TRAF1 (protein, UniProt Q13077 1-416)
chain: MASSSGSSPRPAPDENEFPFGCPPTVCQDPKEPRALCCAGCLSENPRNGEDQICPKCRGEDLQSISPGSRLRTQEKAHPEVAEAGIGCPFAGVGCSFKGSPQSVQEHEVTSQTSHLNLLLGFMKQWKARLGCGLESGPMALEQNLSDLQLQAAVEVAGDLEVDCYRAPCSESQEELALQHFMKEKLLAELEGKLRVFENIVAVLNKEVEASHLALATSIHQSQLDRERILSLEQRVVELQQTLAQKDQALGKLEQSLRLMEEASFDGTFLWKITNVTRRCHESACGRTVSLFSPAFYTAKYGYKLCLRLYLNGDGTGKRTHLSLFIVIMRGEYDALLPWPFRNKVTFMLLDQNNREHAIDAFRPDLSSASFQRPQSETNVASGCPLFFPLSKLQSPKHAYVKDDTMFLKCIVETST
With B1, the binding result was “binds”.
